Data taken from US20110086089A1, “USE OF P27KIP1 FOR THE PREVENTION AND TREATMENT OF HEART FAILURE” (UNIVERSITY HEALTH NETWORK, priority 2008, published 2011).
No constants are given. Whether binding was seen depends on the method and setting. For some of these results: In cells and extracts the contact can be indirect. Some entries that bind do so weakly or less than the wild type.

Key:
[1] = target: recombinant active His-tagged CK2-alpha-prime/beta (UniProt P19784); assay: immunoprecipitation with anti-p27 from kinase reaction mixtures, anti-CK2-alpha-prime immunoblot
[2] = target: recombinant active His-tagged CK2-alpha-prime/beta (UniProt P19784); assay: immunoprecipitation with anti-CK2-alpha-prime from kinase reaction mixtures, anti-p27 immunoblot
[3] = target: glutathione-S-transferase (GST) conjugated wt.p27 (human) (UniProt P46527); assay: GST pull-down on glutathione-sepharose beads, anti-His immunoblot
[4] = target: glutathione-S-transferase (GST) conjugated wt.p27 (human) (UniProt P46527); assay: GST pull-down on glutathione-sepharose beads, anti-His immunoblot (FIG. 1B)

binding [1]	binding [2]	binding [3]	binding [4]	Substance
binds	binds			recombinant His-tagged wt.p27 (from UniProt P46527 1-198)
		binds	binds	Wt.CK2-alpha-prime containing a N-terminal hexahistidine (His) sequence (from UniProt P19784 1-350) (enzyme)
